Reference: patent US20250134917A1, “COMPOSITIONS AND METHODS OF REGENERATING HEART TISSUES WITH AMINOGLYCOSIDES” (The Board of Regents of The University of Texas System, priority 2022, published 2025)
For part of these data: At least one structure is not confirmed: it was looked up by name or label, or the drawing left a doubt. Some results were stated once for a whole list of compounds, not compound by compound.

What was measured:
[1] = system: neonatal rat ventricular myocytes (NRVMs); assay: In vitro phenotypic screening for NRVM proliferation (pH3 immunostaining); format: cell-based; conditions: NRVMs treated with 10 μM
[2] = system: Meis1 transcriptional activity; assay: Meis1 luciferase transcriptional activity assay in NRVMs; format: cell-based, rat; conditions: 10-500 nM, compared to control (PBS for neomycin, paromomycin; DMSO for rutin, hesperidin)
Text: (§1) S1: HOXB13 DNA binding domain, S2: Meis1 DNA binding domain, and S3: Interacting interface between Meis1 and HOXB13 (PDB ID: 5EGO). […] Data are mean±s.e.m.; unpaired two-sided t-test. * P<0.05, ** P<0.01, *** P<0.001.

[3] = system: HOXB13 transcriptional activity; assay: HOXB13 luciferase transcriptional activity assay in NRVMs; format: cell-based, rat; conditions: 10-500 nM, compared to control (PBS for neomycin, paromomycin; DMSO for rutin, hesperidin)
Text: as §1

[4] = target: T1, Meis1 (Mus musculus, UniProt Q60954); assay: Thermal shift assay on purified Meis1 DBD; format: binding; conditions: dose-dependent
T1 construct: made in house; host or cells: E. coli Rosetta (DE3) pLysS
T1 sequence (Q60954 272-334 limits assumed): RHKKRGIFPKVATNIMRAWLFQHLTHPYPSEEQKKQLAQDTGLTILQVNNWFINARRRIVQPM

Row | Compound | increase in the pH3-positive cardiomyocytes compared to control treated NRVMs [1] | luciferase transcriptional activity for Meis1 [2] | luciferase transcriptional activity for HOXB13 [3] | change in the melting temperature of Meis-1 [4]
1 | neomycin | up to 5 fold |  |  | 
2 | C[C@@H]1O[C@@H](OC[C@H]2O[C@@H](Oc3c(-c4ccc(O)c(O)c4)oc4cc(O)cc(O)c4c3=O)[C@H](O)[C@@H](O)[C@@H]2O)[C@H](O)[C@H](O)[C@H]1O [Rutin, rutin] | up to 5 fold | poor inhibitory profile | poor inhibitory profile | 
3 | NC[C@@H]1O[C@H](O[C@H]2[C@@H](O)[C@H](O[C@@H]3[C@@H](O)[C@H](N)C[C@H](N)[C@H]3O[C@H]3O[C@H](CO)[C@@H](O)[C@H](O)[C@H]3N)O[C@@H]2CO)[C@H](N)[C@@H](O)[C@@H]1O [Paromomycin, paromomycin] | up to 5 fold |  |  | up to 10 °C
